# Measured values from patent publication US20250041382A1, “ANTIVIRAL COMPOSITION COMPRISING OCTOMININ” (priority 2023, published 2025).
# Several values for one entry are separate records, joined by “and”; a condition that tells them apart may be missing. Identical values can stand only once. Not every detail of the peptide structures is certain; ends, links or a residue may be inferred. Peptide text beside a SMILES is read from it.
# Legend:
# VHSV (F1Wa05 strain) = assay: Cytopathic effect (CPE) reduction assay, VHSV in FHM cells; conditions: CPE scored after 96 hours
# Description: (§1) Specifically, three major fish pathogenic viruses VHSV (F1Wa05 strain), IHNV (RtPy91 strain), and IPNV (VR299 strain) were used to study the antiviral activity of Octominin. Octominin at various concentrations reacted with an equal amount of virus (infectious titer: 200 TCID50/mL) at 15° C. for 1 hour. Thereafter, the reactant was overlaid onto quadruplicate FHM cells in a 96-well plate (1×10^5 cells/mL) and incubated for 96 hours.
# (§2) CPE was scored by optical microscopy using a DIAPHOT 300 inverted microscope (Nikon Cooperation, Tokyo, Japan) (score 0, 0% CPE; score 1, 10 to 20% CPE; score 2, 30 to 40% CPE; score 3, 50 to 60% CPE; score 4, 70 to 80% CPE; and score 5, 90 to 100%). The results were expressed as a 50% effective concentration (EC50) and calculated using Microsoft Excel software. Ribavirin, a known broad-spectrum antiviral agent, was used as a positive control group. The antiviral activity of Octominin was evaluated by calculation using Equation SI (selective index)=CC50/EC50.
# IHNV = assay: Plaque-forming reduction assay in FHM cells infected with IHNV; assay type: cell-based, infectious hematopoietic necrosis virus; conditions: Octominin 500 μg/mL
# [1] = system: immune response genes in FHM cells; assay: qRT-PCR of immune response genes, IHNV challenge with Octominin in FHM cells; assay type: cell-based; conditions: Octominin 500 μg/mL
# immune response genes = assay: qRT-PCR of immune-regulatory genes after Octominin treatment; assay type: cell-based
# IHNV (RtPy91 strain) = conditions: FHM cells, CPE scored after 96 hours
# Description: as §1, §2
# IPNV (VR299 strain) = conditions: CHSE-214 cells
# Description: as §1, §2
# [2] = 12 hpt, both concentrations (500 and 1000 μg/mL)
# [3] = 48 hpt, 1000 μg/mL compared to 500 μg/mL
smiles,measurement,setting,value
CC[C@H](C)[C@H](NC(=O)[C@H](C)NC(=O)[C@H](CCCCN)NC(=O)CNC(=O)[C@H](C)NC(=O)[C@H](Cc1c[nH]cn1)NC(=O)[C@@H](NC(=O)[C@H](C)NC(=O)CNC(=O)[C@H](CCCNC(=N)N)NC(=O)[C@@H](NC(=O)[C@H](CC(C)C)NC(=O)[C@H](Cc1c[nH]c2ccccc12)NC(=O)CN)[C@@H](C)CC)[C@@H](C)CC)C(=O)N[C@@H](Cc1c[nH]cn1)C(=O)NCC(=O)N[C@@H](CC(C)C)C(=O)N[C@H](C(=O)N[C@@H](Cc1c[nH]cn1)C(=O)N[C@@H](CCCNC(=N)N)C(=O)N[C@@H](CCCNC(=N)N)C(=O)N[C@@H](CCCNC(=N)N)C(=O)N[C@@H](Cc1c[nH]cn1)C(=O)O)[C@@H](C)CC [Octominin] (H-GWLIRGAIHAGKAIHGLIHRRRH-OH),EC50,VHSV (F1Wa05 strain),732.8 μg/mL and 389 µM
same,plaque reduction,IHNV; co-incubation (0 hpi),did not reduce the plaque formation
same,plaque reduction,IHNV; post-treatment +1 hpi,35.9±3.6%
same,plaque reduction,IHNV; post-treatment +5 hpi,15.2±5.3%
same,plaque reduction,IHNV; post-treatment +24 hpi,no plaque reduction effect
same,plaque reduction,IHNV; pre-incubation with virus (-1 hpi),did not reduce the plaque formation
same,plaque reduction,"IHNV; pre-treated 4 hours before virus inoculation (−4 hpi), compared to IHNV alone group",62.4±5.5%
same,Irf3 mRNA expression,"[1]; 12 hpt and 48 hpt, compared to control group",up-regulation
same,IL8 mRNA expression,[1]; both 12 hpt and 48 hpt,down-regulated
same,Irf7 mRNA expression,[1]; both 12 hpt and 48 hpt,down-regulated
same,Mx mRNA expression,[1]; both 12 hpt and 48 hpt,down-regulated
same,NF-KB mRNA expression,[1]; only at 12 hpt,up-regulated
same,HsB8 mRNA expression,[1]; only at 48 hpt,up-regulated
same,IFN mRNA expression,[1]; only at 48 hpt,up-regulated
same,P53 mRNA expression,[1]; only at 48 hpt,up-regulated
same,Irf3 mRNA expression,immune response genes; 3 hpt,up-regulated
same,Irf7 mRNA expression,immune response genes; 3 hpt,up-regulated
same,NF-κB mRNA expression,immune response genes; 3 hpt,up-regulated
same,IFN mRNA expression,"immune response genes; 12 hpt, 500 μg/mL",no change
same,NF-κB mRNA expression,"immune response genes; 12 hpt, 500 μg/mL",no change
same,p53 mRNA expression,"immune response genes; 12 hpt, 500 μg/mL",no change
same,HSP mRNA expression,"immune response genes; 12 hpt, 500 vs 1000 μg/mL",no large difference
same,Mx mRNA expression,"immune response genes; 12 hpt, 500 vs 1000 μg/mL",no large difference
same,IL mRNA expression,immune response genes; [2],up-regulated
same,Irf3 mRNA expression,immune response genes; [2],up-regulated
same,IFN7 mRNA expression,"immune response genes; 48 hpt, 500 μg/mL",up-regulated
same,IFN mRNA expression,"immune response genes; 48 hpt, 500 μg/mL",significantly increased
same,NF-κB mRNA expression,"immune response genes; 48 hpt, 500 μg/mL",significantly increased
same,p53 mRNA expression,"immune response genes; 48 hpt, 500 μg/mL",significantly increased
same,HSP mRNA expression,immune response genes; [3],significantly up-regulated
same,Mx mRNA expression,immune response genes; [3],significantly up-regulated
same,Irf3 mRNA expression,"immune response genes; 48 hpt, only at 500 μg/mL",significantly up-regulated
same,IL8 mRNA expression,"immune response genes; 48 hpt, only at 1000 μg/mL",significantly up-regulated
same,IFN7 mRNA expression,immune response genes; other cases (than 500 μg/mL at 48 hpt),significantly down-regulated
same,EC50,IHNV (RtPy91 strain),435.1 μg/mL and 231 µM
same,EC50,IPNV (VR299 strain),925.9 μg/mL and 492 µM
